Data from patent US20250206834A1.
Results are given in words; binding and its absence hold for the method and conditions named. Some entries that bind do so weakly or less than the wild type.

Chains of the proteins cited; added tags and fusions are not shown. Residues count along the entry.
UniProt Q07011, residues 24-255: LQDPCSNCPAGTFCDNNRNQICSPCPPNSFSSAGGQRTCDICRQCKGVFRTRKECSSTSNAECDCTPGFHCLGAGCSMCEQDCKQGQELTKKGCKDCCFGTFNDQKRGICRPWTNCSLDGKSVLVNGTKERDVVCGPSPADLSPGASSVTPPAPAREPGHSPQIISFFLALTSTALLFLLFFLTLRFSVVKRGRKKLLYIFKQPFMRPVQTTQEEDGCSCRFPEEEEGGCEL

Experiments:
human 4-1BB (human) [1] = molecular target: human 4-1BB (human) (UniProt Q07011); assay: flow cytometry, CHO-K1 cells overexpressing human 4-1BB (FIG. 5)
human 4-1BB (human) [2] = molecular target: human 4-1BB (human) (UniProt Q07011); assay: flow cytometry, CHO-K1 cells overexpressing human 4-1BB

B1: optimized bispecific antibody with 263 huNb-1-3_2 (bispecific antibody, not shown: a dimerising Fc or GST; large carriers)
heavy (part 1 of 2): EVQLVESGGGVVQPGRSLRLSCSASGFDFTTYWMSWVRQAPGKGLEWIGEIHPDSSTINYAPSLKDRFTISRDNAKNTLFLQMDSLRPEDTGVYFCASLYFGFPWFAYWGQGTPVTVSS
heavy (part 2 of 2): GGGGSGGGGSGGGGSGGGGSEVQLVESGGGLVQPGGSLRLSCAASGFTFSSSAMSWARQAPGKGFEWVSGIYSGGSTYYTESVKDRFTISRDNAKNTVYLQMNSLKPEDTAVYYCATWGTLRFGVWAEYDHWGQGTLVTVSS
light: DIQLTQSPSSLSASVGDRVTITCKASQDVGTSVAWYQQKPGKAPKLLIYWTSTRHTGVPSRFSGSGSGTDFTFTISSLQPEDIATYYCQQYSLYRSFGQGTKVEIK
In the case of B1, the binding (human 4-1BB (human) [1]) is reported as “binds” and the binding (human 4-1BB (human) [2]) is reported as “binds”.
